Data published in patent publication US6632923.

Molecular target: human HDL (high density lipoprotein) (human)
Assay: affinity coelectrophoresis (ACE), 125I-LBP run through HDL-containing agarose

binding: no binding
B1: recombinant rabbit LBP-2 clone 26 (6-His tag) (protein, not shown: small tags and cut ends)
chain: PPPPQQPQPPPEGGAARAGGPARPVSLREVVRYLGGSSGAGGRLTRGRVQGLLEEEAAARGRLERTRLGALALPRGDRPGRAPPAASARAARNKRAGEERVLEKEEEEEEEEDDEDDDDDVVSEGSEVPESDRPAGAQHHQLNGGERGPQTAKERAKEWSLCGPHPGQEEGRGPAAGSGTRQVFSMAALSKEGGSASSTTGPDSPSPVPLPPGKPALPGADGTPFGCPAGRKEKPADPVEWTVMDVVEYFTEAGFPEQATAFQEQEIDGKSLLLMQRTDVLTGLSIRLGPALKIYEHHIKVLQQGHFEDDDPEGFLG
modifications: 125I-labeled (Iodobeads) where used as the radiolabeled species in ACE assays

These are yes or no findings as the source states them, for the method shown. Sequences can lack the tags named with a protein.
